Measurements reported in patent publication US12097329B2, “Apparatus to administer drugs to mechanically ventilated patients” (Chiesi Farmaceutici S.p.A., priority 2018, dated 2024).
Counter-ions that a name gives are not always drawn.

Test: Aerosol performance by Next Generation Impactor (NGI), drug quantified by HPLC
Assay type: physicochemical
Method: A powder formulation was prepared according to the teaching of Examples 2 and 3 of WO 2013/110632 and loaded in the multi-dose dry powder inhaler described in WO 2016/000983. A ventilator system Monnal T75, available from Air Liquid Medical Systems […], Italy) was used. A Catheter mounth (ID 10 mm, length 17 cm) and an endotracheal catheter (ID 8 mm, length 8.5 cm) were also utilized. Other equipments were standard. The following conditions were set-up: tidal volume: 500 ml; PEEP 5 cmH2O; Flow rate: about 41 l/min; breath frequency: 15 bpm. All tests were performed at room temperature and lung temperature (about 37° C.) with in line humidification (about 75% relative humidity system). The inhaler was connected to the ventilation system through the connector of the invention. The evaluation of the aerosol performance was carried out using the Next Generation Impactor (NGI) according to the conditions reported in the European Pharmacopeia 8.5th Ed 2015, par 2.9.18, pages 309-320. After aerosolization of three doses from the inhaler device, the NGI apparatus was disassembled and the amounts of drug deposited in the stages were recovered by washing with a solvent mixture and then quantified by High-Performance Liquid Chromatography (HPLC).

[1] = BDP + FF 100 + 6 μg/10 mg DPI 37° C. 75% RH T-vol 500, connected to ventilation system through the connector
[2] = BDP + FF 100 + 6 μg/10 mg DPI - Release

SMILES: COc1ccc(CC(C)NCC(O)c2ccc(O)c(NC=O)c2)cc1 (stereo not drawn) [FF, formoterol fumarate dihydrate]
- EFPF (extrafine particle fraction) [1]: 27.69 % on DD
- EFPM (extrafine FPM) [1]: 1.06 µg
- FPF (fine particle fraction) [1]: 59.19 % on DD
- EFPF (extrafine particle fraction) [2]: 18.98 % on DD
- EFPM (extrafine FPM) [2]: 0.88 µg
- FPF (fine particle fraction) [2]: 62.09 % on DD
